In this assay the target is Giardia lamblia Mnd1 (GL50803_6626), full length (Giardia lamblia ATCC 50803) (UniProt E2RTU1). Briefly: crystal structure; hanging-drop vapor diffusion at 18°C, 18% PEG 3350, 0.1 M Tris-HCl pH 8.5, 2% Tascimate; SAD phasing with a SelMet crystal, refined against native data to 3.2 Å; three heterodimers in the asymmetric unit; both purified.

Sequences of proteins named here, by UniProt entry; tags and fusion partners are left off. A change or cut given only in a name is not applied to a line headed by its entry.
UniProt A8BZF2: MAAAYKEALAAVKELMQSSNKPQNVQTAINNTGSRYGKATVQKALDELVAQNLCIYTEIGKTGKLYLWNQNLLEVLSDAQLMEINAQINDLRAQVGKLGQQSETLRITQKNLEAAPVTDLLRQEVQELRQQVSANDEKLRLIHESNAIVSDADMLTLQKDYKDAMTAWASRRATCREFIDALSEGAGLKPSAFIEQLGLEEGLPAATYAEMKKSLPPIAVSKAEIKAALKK

No constants are given. Whether binding was seen depends on the method and setting. A result given as binding can be weak or reduced; the word gives no strength.

With “Giardia lamblia Hop2 (GL50803_17044), full length (from UniProt A8BZF2)”, the binding entry was “binds”.

The values above are taken from article PMC4402518.
